Data as given in PubChem BioAssay AID1259254 (NCATS, 2017)
Shown is one part, drawn at random, of about 59,000 deposited reagents. About 1,550 of all reagents (2.6%) count as active. 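G2 share is only a proxy for re-replication; each gene was hit by three separate siRNAs, and active genes were retested.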 The raw values are shown without normalisation. Unmarked entries are inactive. The numbers tell different reagents against one gene apart. Not given: the amount of reagent.

Test: 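Gene knock-downs that lead to re-replication, shown by excess G2 DNA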 (primary screen)
Cells: human HCT116 colorectal cancer cells
Reagents: single siRNA against human genes
Timing: 3 days
Measured: 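Nuclei stained with Hoechst and imaged; cell-cycle phase assigned by DNA content; G2 share scaled per plate, non-targeting siRNA 0%, GMNN siRNA 100%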
Direction: G2 robust z-score and G2 cells, % of GMNN control: higher = more G2 cells, more excess DNA replication; raw share of cells in G2: higher = larger share of cells with G2 DNA content
Call rule: 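Active siRNAs have a G2 robust z of 5 or more median absolute deviations over the median, which in these data means about 38% or higher of GMNN control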

gene symbol	reagent	G2 robust z-score	G2 cells, % of GMNN control	raw share of cells in G2 (%)
GUCY1B1	1	0.0757	3.5	6.32
GUCY1B1	2	-1.43	-7.11	2.98
GUCY1B1	3	-1.15	-5.11	2.33
RAI14	1	0.0957	3.64	5.78
RAI14	2	1.3	12.1	9.2
RAI14	3	-1.03	-4.31	1.79
ZNF80	1	-1.15	-5.15	1.81
ZNF80	2	-0.647	-1.59	5.28
ZNF80	3	-0.317	0.738	3.65
ZNF695	1	0.88	9.16	10.4
ZNF695	2	-0.657	-1.66	3.85
ZNF695	3	-0.672	-1.76	3.6
COL14A1	1	0.298	5.06	5.47
COL14A1	2	-0.271	1.06	5.34
COL14A1	3	0.0464	3.29	4.3
IL17F	1	0.222	4.53	3.14
IL17F	2	-0.0602	2.54	5.11
IL17F	3	0.442	6.08	5.14
EEIG2	1	1.9	16.3	9.59
EEIG2	2	0.965	9.76	6.82
EEIG2	3	-0.27	1.07	3.59
C4orf17	1	1.21	11.5	7.92
C4orf17	2	-0.851	-3.02	2.56
C4orf17	3	-0.74	-2.24	1.73
MYOZ3	1	0.118	3.8	5.91
MYOZ3	2	-0.714	-2.06	4.72
MYOZ3	3	-0.591	-1.19	4.46
TCEAL8	1	-0.63	-1.47	2.83
TCEAL8	2	1.06	10.4	7.25
TCEAL8	3	1.92	16.5	10.5
ATF6	1	-1.42	-7.06	3.54
ATF6	2	0.00626	3.01	5.16
ATF6	3	0.818	8.73	6.85
SMAD5	1	-0.777	-2.5	2.47
SMAD5	2	0.158	4.08	6.76
SMAD5	3	0.16	4.09	4.59
PRSS16	1	0.519	6.62	7.87
PRSS16	2	2.06	17.5	11.1
PRSS16	3	-0.6	-1.26	3.44
POLR1D	1	1.12	10.8	8.25
POLR1D	2	3.88	30.2	15.4
POLR1D	3	-0.324	0.69	6.27
IL6R	1	0.171	4.17	7.27
IL6R	2	-0.887	-3.27	3
IL6R	3	1.76	15.4	10.6
TBC1D8B	1	0.0263	3.15	7.81
TBC1D8B	2	1.36	12.5	8.93
TBC1D8B	3	-0.513	-0.643	4.07
TSGA13	1	-0.501	-0.56	3.87
TSGA13	2	-0.17	1.77	3.86
TSGA13	3	-1	-4.07	0.63
ZNF35	1	-1.01	-4.13	2.15
ZNF35	2	-0.166	1.8	6.79
ZNF35	3	0.369	5.57	5.67
TK1	1	2.31	19.2	11.9
TK1	2	-1.23	-5.67	3.5
TK1	3	-1.13	-4.96	2.28
FUOM	1	-0.343	0.552	3.84
FUOM	2	0.643	7.49	5.94
FUOM	3	-0.59	-1.18	2.91
PAFAH1B2	1	-0.505	-0.587	3
PAFAH1B2	2	-0.661	-1.68	4.57
PAFAH1B2	3	1.13	10.9	9.18
RAB11FIP3	1	-0.33	0.647	5.01
RAB11FIP3	2	1.41	12.9	10.1
RAB11FIP3	3	-0.133	2.03	3.89
LITATS1	1	-0.18	1.7	4.24
LITATS1	2	2.37	19.6	11
LITATS1	3	-0.514	-0.65	2.64

No new results follow: 4 of the entries above.
gene symbol	reagent	G2 robust z-score	G2 cells, % of GMNN control	raw share of cells in G2 (%)
IL6R	2	-0.887	-3.27	3
IL6R	3	1.76	15.4	10.6
TBC1D8B	1	0.0263	3.15	7.81
TBC1D8B	2	1.36	12.5	8.93
